According to PubChem BioAssay AID651664 (NMMLSC, 2012):
The campaign covered roughly 1,800 compounds. Fewer than 10 were called active.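 The calls were made as follows: active = inhibition of granule release above a set limit; inactive = the rest.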 Some of the results follow.

Assay: LAMP-1 surface externalization blockers in TALL-104 cells – cell-based, flow cytometry, validation set (AID 651664)
Conditions: TALL-104 LAMP-1 externalization, at 15.2 µM, stronger effect = higher value, stimulated with thapsigargin and PMA

Compound | inhibition
O=C(Cn1cccc1C(=O)c1ccccc1)NCc1ccc2c(c1)OCO2 | inactive: -2.5%
Cc1ccc(C(=O)NC(=S)Nc2cc(C(F)(F)F)ccc2Cl)cc1 | inactive: 2.1%
CCn1c(=N)n(CC(O)c2ccccc2)c2ccccc21 (centres undefined) | inactive: 0.1%
O=S(=O)(c1ccc(Cl)cc1)c1snnc1-c1ccccc1 | inactive: -2.8%
COC(=O)C1=CN(CCCN2CCCC2=O)C=C(C(=O)OC)C1c1ccccc1C(F)(F)F | inactive: 3.5%
Cc1ccccc1NS(=O)(=O)c1ccc2[nH]cc(C(=O)N(C)Cc3ccco3)c(=O)c2c1 | inactive: -1.6%
CC(=O)c1ccc(NC(=O)Nc2ccc(NS(=O)(=O)c3ccc(C)cc3)cc2)cc1 | inactive: -2.9%
O=c1cc(-c2ccc(Cl)c(Cl)c2)[nH][nH]1 | inactive: -1.5%
CCOc1ccccc1NC(=O)c1ccc(S(=O)(=O)N2CCOCC2)cc1 | inactive: -1.3%
O=C1N/C(=N/Nc2ccccc2)S/C1=C\c1ccccc1 | inactive: 2.3%
COCCCn1c(-c2ccccc2Cl)n[nH]c1=S | inactive: 4.6%
CC(C)(C)c1ccc(C(=O)Nc2ccccc2NC(=O)c2ccco2)cc1 | inactive: -5.5%
Nc1cc(=O)[nH]c(SC/C=C/c2ccccc2)n1 | inactive: -2.4%
O=C(Nc1ccc2c(c1)OCCO2)c1ccc(Br)c(S(=O)(=O)N2CCOCC2)c1 | inactive: 0.7%
CCOc1ccc(-n2nnnc2SCC(=O)c2ccccc2)cc1 | inactive: 2.2%
COc1ccc(-c2[nH]nc3c2C(c2ccoc2)C(C#N)=C(N)O3)cc1 (centres undefined) | inactive: 0.9%
CCCS/C(N)=N/N=C/c1cc(C)ccc1O | inactive: -0.4%
CCOC(=O)COc1ccc(/C=C2/SC(=Nc3ccccc3)N(Cc3cccnc3)C2=O)cc1OC | inactive: 0.5%
CCN(CC)C(=O)CSc1ncnc2c1nnn2-c1ccc(OC)cc1 | inactive: -0.1%
O=C(Nc1ccccc1)N1C2CCC1CC(O)(c1cccnc1)C2 (centres undefined) | inactive: -2%
COc1ccc(CN2CCN(C(=O)c3ccco3)CC2)cc1OCc1ccccc1 | inactive: -1%
COc1cccc(/C=N/NC(=O)CSc2nnc(C)n2-c2ccccc2)c1O | inactive: -2.5%
Cc1nn(Cc2ccccc2Cl)c2sc(C(=O)NCc3ccc4c(c3)OCO4)cc12 | inactive: 1.1%
CC(C)c1ccc(Nc2ncccc2C#N)cc1 | inactive: 11.2%
O=C(COC(=O)c1ccccc1)NCc1ccco1 | inactive: -0.5%

Compound | inhibition
COc1ccc(/C=N/n2cnnc2SCCO)cc1OC | inactive: 0%
Cc1nn(-c2ccccc2)c2nc(-c3ccco3)cc(C(=O)O)c12 | inactive: 3.1%
Cc1cccc2cc(COC(=O)C(C)C)c(=O)[nH]c12 | inactive: -1.9%
Cc1ccc(-n2nc3cc(C)c(NC(=O)c4cccnc4)cc3n2)cc1 | inactive: -4.1%
CC1=CCC(C(=O)N/N=C/c2cccs2)C(c2ccc(F)cc2)C1 (centres undefined) | inactive: -2.4%
CCOC(=O)c1ccc(N2C(=O)CC(Sc3nnc(C)s3)C2=O)cc1 (centres undefined) | inactive: -0.5%
C=C(C)COc1ccc(-c2[nH]ncc2-c2ccc(OC)c(OC)c2)c(O)c1 | inactive: 1.2%
C=CCN1C(=O)CC(C(=O)NC)SC1=Nc1ccc(C(=O)OCC)cc1 (centres undefined) | inactive: -3%
CCc1ccc(Nc2ncccc2C#N)cc1 | inactive: 1.1%
NC(=O)CSc1nnc2sc3ccccc3n12 | inactive: 6.1%
c1ccc(N2CCCCC2)c(NC2=NCCC2)c1 | inactive: 1.2%
COC(=O)c1ccc(CN2CCN(Cc3ccc(C(=O)OC)o3)CC2)o1 | inactive: 2.2%
CCC(CC)NC(=O)c1cc2c(C)nn(Cc3ccccc3Cl)c2s1 | inactive: -0.5%
CSc1nc2nc3c(c(=O)n2[nH]1)CCCC3 | inactive: 1.3%
CCOC(=O)c1c(C)nc2sc3c(=O)n(-c4ccc(C(C)=O)cc4)cnc3c2c1-c1ccc(Cl)cc1 | inactive: 7.6%
Cc1ccc(O)c(-c2cc(C(F)(F)C(F)F)[nH]n2)c1 | inactive: 2.3%
COc1ccc(-c2sc(NC(=O)c3ccc(C)cc3)nc2-c2ccc([N+](=O)[O-])cc2)cc1 | inactive: 0.2%
Cc1ccc(CCN2CC(C(=O)NCCCN3CCOCC3)CC2=O)cc1 (centres undefined) | inactive: 3.8%
Nc1nc(CSCc2ccccc2)nc(N2CCOCC2)n1 | inactive: -1.9%
CSC(=NCCCN1CCOCC1)NS(=O)(=O)c1cccs1 | inactive: 1.8%
Fc1ccccc1/C=N/Nc1nn[nH]n1 | inactive: -1.6%
CCOC(=O)c1c(-c2cccc([N+](=O)[O-])c2)csc1NC(=O)C1CCCCC1 | inactive: 0.9%
COC(=O)c1nn(-c2ccc(-c3ccccc3)cc2)cc1O | inactive: -2.5%
COC(=O)c1ccccc1Sc1c(/C=N/OCc2ccc(Cl)cc2)c(C(F)(F)F)nn1C | inactive: -2.9%
CC(C)c1ccc(NC(=O)NC2CCN(CC(=O)Nc3cccc4ccccc34)CC2)cc1 | inactive: -1.8%

Compound | inhibition
COc1ccc(Oc2c(C)oc3c(CN4CCOCC4)c(O)ccc3c2=O)cc1 | inactive: -1.6%
CCOC(=O)c1ccc(NS(C)(=O)=O)cc1 | inactive: -3.4%
Cc1nn(C)c(C)c1NC(=O)Nc1cccc(C(F)(F)F)c1 | inactive: 2%
CCN(Cc1cc2cccc(C)c2[nH]c1=O)C(=O)c1ccccc1OC | inactive: -1.7%
CCn1c(COc2ccc3c(c2)OCO3)nnc1SCC(=O)c1ccccc1 | inactive: -1.1%
O=C(NCc1ccncc1)Nc1ccc(F)cc1 | inactive: -2.7%
CCN=C1SC(CC(=O)Nc2sc(C)c(C)c2C(=O)OC)C(=O)N1CC (centres undefined) | inactive: -1.5%
COC(=O)C1CCN(c2cc(=O)n(C3CCCCC3)c(=O)[nH]2)CC1 | inactive: 5.6%
CCN(CC)C(=O)CCC(=O)Nc1ccc(C(=O)OC)cc1 | inactive: -0.8%
O=C1c2ccccc2NC(c2cnc3ccccc3n2)N1O (centres undefined) | inactive: -0.6%
COc1ccc(-c2nnc(SCC(=O)NCCc3ccccc3)o2)cc1 | inactive: -6%
CC(C)(C)N1CC(c2nc3ccccc3n2CCOc2ccccc2)CC1=O (centres undefined) | inactive: -1.1%
CCOc1ccccc1N1CCN(S(=O)(=O)CC)CC1 | inactive: 2.8%
CCCN(C(=S)Nc1ccccc1)C1CCS(=O)(=O)C1 (centres undefined) | inactive: -0.4%
c1ccc(-c2nnc(SCc3nnc(-c4cccs4)o3)o2)cc1 | inactive: -1.5%
CCOC(=O)c1nnn(-c2nonc2N)c1COc1c(C=O)cccc1OC | inactive: -1.7%
COc1cccc(C(=O)Nc2ccc(NC(=O)c3ccco3)cn2)c1 | inactive: -1.1%
CC1CCN(S(=O)(=O)c2ccc(F)c(C(=O)O)c2)CC1 | inactive: 3.9%
Cc1c(NC2=NC3(CCCCC3)Cc3ccccc32)c(=O)n(-c2ccccc2)n1C | inactive: 0.6%
N/C(=N\OC(=O)c1ccc(Cl)cc1Cl)c1ccc(Cl)cc1 | inactive: 5.2%
Fc1ccccc1COc1ccc(Br)cc1CNCc1ccncc1 | inactive: -0.2%
Cc1cc(C)n(-c2ccc(N3CCOCC3)nn2)n1 | inactive: 13.4%
CC1SC(=NC(=O)C(C)N2C(=O)c3ccccc3C2=O)NC1=O (centres undefined) | inactive: -1.3%
Cc1cc(Nc2ccccc2)n(-c2nc3ccccc3[nH]2)n1 | inactive: 11.6%
Cc1csc2nc(CSc3nc4ccccc4o3)c(Br)n12 | inactive: -0.9%

Compound | inhibition
C=C(C)COc1ccc(-c2n[nH]c(C)c2Oc2ccccc2OC)c(O)c1 | inactive: -0.7%
Cc1nc(NCc2ccco2)c(C#N)c2c1COC(C)(C)C2 | inactive: -1%
CCOc1ccccc1N1CC(C(=O)Nc2nccs2)CC1=O (centres undefined) | inactive: -1.1%
O=c1c2ccccc2nc(/C=C/c2cccc([N+](=O)[O-])c2)n1CCCO | inactive: -1.7%
CCCNC(=O)c1ccc(-c2nc3ccccc3s2)s1 | inactive: 2.9%
CCCSC1=N/C(=C\C=C\c2ccco2)C(=O)S1 | inactive: -2.2%
CC(=O)Oc1ccc2c(c1)OC(c1ccccc1)CC21CC(C)(C)NC(=S)N1 (centres undefined) | inactive: -0.7%
CCOC(=O)C(NC(=O)c1ccccc1)=C1C=C(C)OC(C)=C1 | inactive: 2.3%
N=C1C(c2nc(-c3ccc(Cl)cc3)cs2)=C(O)CN1CCCN1CCOCC1 | inactive: 1.7%
O=C(Nc1ccc(F)cc1)c1nsc(Cl)c1Cl | inactive: 0.6%
COC(=O)C1=C(C(=O)c2ccccc2)C(c2cccs2)n2nnnc2N1 (centres undefined) | inactive: 0%
CC(C)(C)C1CCc2[nH]c3ccccc3c(=O)c2C1 (centres undefined) | inactive: 4.6%
CSc1ccc(S(=O)(=O)N2CCCC2)cc1 | inactive: -1.2%
Cc1nnc(C)n1/N=C/c1ccccn1 | inactive: -3.6%
O=C(Nc1ccc(NC(=O)c2ccco2)cc1)c1ccc2c(c1)OCO2 | inactive: 2.1%
O=C(O/N=C\c1ccc(N2CCCCC2)c([N+](=O)[O-])c1)c1cccc(C(F)(F)F)c1 | inactive: -0.1%
COc1ccc(O)c(C(=O)c2cc(C#N)c(=O)n(CC3CCCO3)c2)c1 (centres undefined) | inactive: -2.1%
O=[N+]([O-])/C=C/c1cn(Cc2ccccc2)c2ccccc12 | inactive: -0.3%
O=c1c2ccccc2nc(SCc2cn3ccsc3n2)n1-c1ccccc1F | inactive: 4.6%
COC(=O)C1=C(C)N=C2SCCC(=O)N2C1c1ccc(OC(=O)c2ccco2)cc1 (centres undefined) | inactive: -1.3%
CCOC(=O)Nc1c(C(=O)OC)[nH]c2cc(OC)ccc12 | inactive: 0%
Cc1ccc(C)c2c3c([nH]c12)-c1nonc1CC3 | inactive: -1%
Cc1cc(OCC(=O)NCc2nc(-c3ccccc3)no2)c(C)cc1Br | inactive: 1.2%
CC(C)(C)NC(=O)Cc1ccc(S(=O)(=O)N2CCCC2)s1 | inactive: -1.8%

Ordered by count of non-hydrogen atoms (ascending): some entries from above
Compound | inhibition
O=C(Nc1ccc(F)cc1)c1nsc(Cl)c1Cl | inactive: 0.6%
CCCSC1=N/C(=C\C=C\c2ccco2)C(=O)S1 | inactive: -2.2%
Cc1nc(NCc2ccco2)c(C#N)c2c1COC(C)(C)C2 | inactive: -1%
COc1ccc(O)c(C(=O)c2cc(C#N)c(=O)n(CC3CCCO3)c2)c1 (centres undefined) | inactive: -2.1%
